{
  "source": "paper PMC11852966",
  "binders": {"B1": {"name": "KRT9 (endogenous, HEK293T) (protein, UniProt P35527 1-623)", "chain": "MSCRQFSSSYLSRSGGGGGGGLGSGGSIRSSYSRFSSSGGGGGGGRFSSSSGYGGGSSRVCGRGGGGSFGYSYGGGSGGGFSASSLGGGFGGGSRGFGGASGGGYSSSGGFGGGFGGGSGGGFGGGYGSGFGGFGGFGGGAGGGDGGILTANEKSTMQELNSRLASYLDKVQALEEANNDLENKIQDWYDKKGPAAIQKNYSPYYNTIDDLKDQIVDLTVGNNKTLLDIDNTRMTLDDFRIKFEMEQNLRQGVDADINGLRQVLDNLTMEKSDLEMQYETLQEELMALKKNHKEEMSQLTGQNSGDVNVEINVAPGKDLTKTLNDMRQEYEQLIAKNRKDIENQYETQITQIEHEVSSSGQEVQSSAKEVTQLRHGVQELEIELQSQLSKKAALEKSLEDTKNRYCGQLQMIQEQISNLEAQITDVRQEIECQNQEYSLLLSIKMRLEKEIETYHNLLEGGQEDFESSGAGKIGLGGRGGSGGSYGRGSRGGSGGSYGGGGSGGGYGGGSGSRGGSGGSYGGGSGSGGGSGGGYGGGSGGGHSGGSGGGHSGGSGGNYGGGSGSGGGSGGGYGGGSGSRGGSGGSHGGGSGFGGESGGSYGGGEEASGSGGGYGGGSGKSSHS"}},
  "target": "T1, GBP5-HA (UniProt Q96PP8)",
  "T1 sequence": "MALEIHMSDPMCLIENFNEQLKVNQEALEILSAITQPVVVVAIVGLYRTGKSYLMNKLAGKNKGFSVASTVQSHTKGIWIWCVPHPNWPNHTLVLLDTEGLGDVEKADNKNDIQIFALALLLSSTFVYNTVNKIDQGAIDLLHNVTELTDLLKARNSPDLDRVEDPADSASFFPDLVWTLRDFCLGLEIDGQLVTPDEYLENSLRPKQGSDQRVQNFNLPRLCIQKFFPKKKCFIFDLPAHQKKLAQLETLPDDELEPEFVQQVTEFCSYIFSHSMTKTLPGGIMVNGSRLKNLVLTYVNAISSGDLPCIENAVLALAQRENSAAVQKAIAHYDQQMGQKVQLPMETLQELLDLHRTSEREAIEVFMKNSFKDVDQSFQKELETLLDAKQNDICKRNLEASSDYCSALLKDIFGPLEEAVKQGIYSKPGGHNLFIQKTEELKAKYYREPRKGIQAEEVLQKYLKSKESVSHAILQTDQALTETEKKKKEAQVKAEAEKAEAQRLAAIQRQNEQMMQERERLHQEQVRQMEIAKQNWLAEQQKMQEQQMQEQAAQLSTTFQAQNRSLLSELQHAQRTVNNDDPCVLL",
  "experiment": "affinity purification with mass spectrometry; HEK293T cells transfected with GBP5-HA for 48 hours; co-IP with anti-HA antibody and protein G agarose; eluate analysed by MS; compared with empty vector VR1012",
  "note": "No constants are given. Whether binding was seen depends on the method and setting. Binding seen in cells or lysates may run through a third protein. Here binding means that the protein was enriched with, or labelled near, the bait; the list need not be complete. Sequences can lack the tags named with a protein.",
  "data": [
    {"binder": "B1", "values": [
      {"measurement": "binding", "result": "binds"}
    ]}
  ]
}
